According to US5639616, “Isolated nucleic acid encoding a ubiquitous nuclear receptor” (Arch Development Corporation):

Molecular target: T1, rUR full-length (ubiquitous nuclear receptor) (Rattus norvegicus) (UniProt Q62755)
T1 sequence: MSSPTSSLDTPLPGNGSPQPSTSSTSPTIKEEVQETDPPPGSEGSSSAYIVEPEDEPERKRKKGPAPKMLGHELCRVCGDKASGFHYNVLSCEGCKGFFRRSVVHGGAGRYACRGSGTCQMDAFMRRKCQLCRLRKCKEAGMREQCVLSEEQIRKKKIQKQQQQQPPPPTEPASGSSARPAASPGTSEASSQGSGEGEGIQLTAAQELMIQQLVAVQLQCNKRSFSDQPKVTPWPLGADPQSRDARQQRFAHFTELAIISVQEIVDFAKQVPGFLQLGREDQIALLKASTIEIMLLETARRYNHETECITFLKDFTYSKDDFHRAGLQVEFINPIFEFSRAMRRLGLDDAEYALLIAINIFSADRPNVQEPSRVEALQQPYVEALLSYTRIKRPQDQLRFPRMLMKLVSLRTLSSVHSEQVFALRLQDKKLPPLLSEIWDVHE
Test: EMSA
Details: similar affinity DR-0 to DR-6, mainly homodimer; protein translated in vitro; label: 32P

Sequence | binding result
GATCCTCAGGTCACCAGGAGGTCAGAAGCT (double strand) [DR-5] | binds
GATCCTCAGGTCAAGGAGGTCAGAAGCT (double strand) [DR-3] | binds
GATCCTCAGGTCACAGGAGGTCAGAAGCT (double strand) [DR-4] | binds
GATCCTCAGGTCACCAAGGAGGTCAGAAGCT (double strand) [DR-6] | binds
GATCCTCAGGTCAGAGGTCAGAAGCT (double strand) [DR-1] | binds
GATCCTCAGGTCAAGAGGTCAGAAGCT (double strand) [DR-2] | binds
GATCCTCAGGTCAAGGTCAGAAGCT (double strand) [DR-0] | binds

For at least one entry, the source does not settle the construct or the ends of the probe. Protein sequences can lack the tags named with them.
